Measured values from the supplement of paper PMC10849652.
The other results are listed elsewhere or left out.

The chains behind the UniProt entries cited, without tags or fusion partners. Where a name states a change or a piece, a line headed by the entry shows the natural chain unless it says otherwise.
UniProt Q5VU43: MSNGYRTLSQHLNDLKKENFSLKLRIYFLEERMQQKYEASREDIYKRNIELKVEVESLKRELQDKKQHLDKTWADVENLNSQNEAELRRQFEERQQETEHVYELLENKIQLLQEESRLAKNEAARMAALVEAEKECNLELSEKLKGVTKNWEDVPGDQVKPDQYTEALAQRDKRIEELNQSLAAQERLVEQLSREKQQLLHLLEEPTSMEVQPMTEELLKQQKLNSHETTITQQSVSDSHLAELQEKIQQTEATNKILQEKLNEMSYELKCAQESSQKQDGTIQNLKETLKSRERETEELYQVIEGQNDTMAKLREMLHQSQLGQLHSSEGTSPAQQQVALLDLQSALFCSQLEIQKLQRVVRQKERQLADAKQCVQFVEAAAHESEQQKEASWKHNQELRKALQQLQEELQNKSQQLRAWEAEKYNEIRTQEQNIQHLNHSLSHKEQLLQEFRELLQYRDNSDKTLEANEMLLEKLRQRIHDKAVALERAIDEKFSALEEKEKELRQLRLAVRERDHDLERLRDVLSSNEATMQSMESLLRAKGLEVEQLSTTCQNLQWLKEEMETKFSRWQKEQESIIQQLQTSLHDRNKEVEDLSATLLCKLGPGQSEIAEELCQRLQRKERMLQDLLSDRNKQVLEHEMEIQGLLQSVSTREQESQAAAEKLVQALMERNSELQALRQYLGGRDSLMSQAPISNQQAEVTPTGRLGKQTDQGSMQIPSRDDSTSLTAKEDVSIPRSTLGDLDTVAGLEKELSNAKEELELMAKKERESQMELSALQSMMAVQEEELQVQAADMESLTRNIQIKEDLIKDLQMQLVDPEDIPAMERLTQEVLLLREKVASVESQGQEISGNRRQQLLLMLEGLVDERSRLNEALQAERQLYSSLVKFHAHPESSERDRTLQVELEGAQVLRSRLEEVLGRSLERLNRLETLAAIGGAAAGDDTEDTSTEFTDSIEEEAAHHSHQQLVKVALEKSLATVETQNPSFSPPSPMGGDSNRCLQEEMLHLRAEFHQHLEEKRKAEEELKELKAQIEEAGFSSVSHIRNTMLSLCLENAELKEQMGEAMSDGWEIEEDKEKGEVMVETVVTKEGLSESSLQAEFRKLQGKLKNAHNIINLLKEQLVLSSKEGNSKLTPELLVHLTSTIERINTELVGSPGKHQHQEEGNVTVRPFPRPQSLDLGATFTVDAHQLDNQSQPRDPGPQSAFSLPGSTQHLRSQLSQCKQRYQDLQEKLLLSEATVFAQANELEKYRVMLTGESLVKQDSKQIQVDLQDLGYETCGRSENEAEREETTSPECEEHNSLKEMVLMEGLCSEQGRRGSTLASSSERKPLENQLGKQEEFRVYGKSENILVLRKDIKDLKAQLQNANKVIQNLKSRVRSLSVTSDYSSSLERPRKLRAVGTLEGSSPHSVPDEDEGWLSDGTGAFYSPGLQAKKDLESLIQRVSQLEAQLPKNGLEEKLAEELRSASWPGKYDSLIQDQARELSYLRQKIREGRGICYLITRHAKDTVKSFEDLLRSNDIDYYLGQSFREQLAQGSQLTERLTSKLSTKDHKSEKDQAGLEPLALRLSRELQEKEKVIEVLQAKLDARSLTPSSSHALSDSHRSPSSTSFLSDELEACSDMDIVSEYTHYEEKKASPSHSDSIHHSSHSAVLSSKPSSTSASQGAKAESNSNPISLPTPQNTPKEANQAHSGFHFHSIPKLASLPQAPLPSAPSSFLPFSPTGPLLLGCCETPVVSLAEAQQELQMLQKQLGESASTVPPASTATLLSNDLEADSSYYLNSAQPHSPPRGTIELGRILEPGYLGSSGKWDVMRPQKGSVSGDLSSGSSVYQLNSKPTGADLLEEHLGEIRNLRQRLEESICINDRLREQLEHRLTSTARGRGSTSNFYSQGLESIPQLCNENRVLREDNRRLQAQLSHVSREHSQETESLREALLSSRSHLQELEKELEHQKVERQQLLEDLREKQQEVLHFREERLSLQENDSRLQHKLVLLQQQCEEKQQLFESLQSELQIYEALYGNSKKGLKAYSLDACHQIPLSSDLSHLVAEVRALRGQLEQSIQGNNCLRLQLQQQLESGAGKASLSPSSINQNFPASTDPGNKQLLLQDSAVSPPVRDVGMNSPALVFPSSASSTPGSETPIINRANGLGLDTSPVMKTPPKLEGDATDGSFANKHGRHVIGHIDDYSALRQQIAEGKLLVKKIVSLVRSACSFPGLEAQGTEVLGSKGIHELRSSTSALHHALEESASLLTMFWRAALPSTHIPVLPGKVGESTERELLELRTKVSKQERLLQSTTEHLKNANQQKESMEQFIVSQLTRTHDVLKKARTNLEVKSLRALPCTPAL
UniProt P68402: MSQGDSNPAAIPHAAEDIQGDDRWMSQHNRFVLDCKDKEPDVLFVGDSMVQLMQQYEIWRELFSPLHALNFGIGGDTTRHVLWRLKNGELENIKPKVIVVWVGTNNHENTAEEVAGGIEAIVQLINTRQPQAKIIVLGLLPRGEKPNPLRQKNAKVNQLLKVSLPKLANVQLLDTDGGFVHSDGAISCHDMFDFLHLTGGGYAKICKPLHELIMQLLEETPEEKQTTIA
UniProt P09874, whole entry, looked up: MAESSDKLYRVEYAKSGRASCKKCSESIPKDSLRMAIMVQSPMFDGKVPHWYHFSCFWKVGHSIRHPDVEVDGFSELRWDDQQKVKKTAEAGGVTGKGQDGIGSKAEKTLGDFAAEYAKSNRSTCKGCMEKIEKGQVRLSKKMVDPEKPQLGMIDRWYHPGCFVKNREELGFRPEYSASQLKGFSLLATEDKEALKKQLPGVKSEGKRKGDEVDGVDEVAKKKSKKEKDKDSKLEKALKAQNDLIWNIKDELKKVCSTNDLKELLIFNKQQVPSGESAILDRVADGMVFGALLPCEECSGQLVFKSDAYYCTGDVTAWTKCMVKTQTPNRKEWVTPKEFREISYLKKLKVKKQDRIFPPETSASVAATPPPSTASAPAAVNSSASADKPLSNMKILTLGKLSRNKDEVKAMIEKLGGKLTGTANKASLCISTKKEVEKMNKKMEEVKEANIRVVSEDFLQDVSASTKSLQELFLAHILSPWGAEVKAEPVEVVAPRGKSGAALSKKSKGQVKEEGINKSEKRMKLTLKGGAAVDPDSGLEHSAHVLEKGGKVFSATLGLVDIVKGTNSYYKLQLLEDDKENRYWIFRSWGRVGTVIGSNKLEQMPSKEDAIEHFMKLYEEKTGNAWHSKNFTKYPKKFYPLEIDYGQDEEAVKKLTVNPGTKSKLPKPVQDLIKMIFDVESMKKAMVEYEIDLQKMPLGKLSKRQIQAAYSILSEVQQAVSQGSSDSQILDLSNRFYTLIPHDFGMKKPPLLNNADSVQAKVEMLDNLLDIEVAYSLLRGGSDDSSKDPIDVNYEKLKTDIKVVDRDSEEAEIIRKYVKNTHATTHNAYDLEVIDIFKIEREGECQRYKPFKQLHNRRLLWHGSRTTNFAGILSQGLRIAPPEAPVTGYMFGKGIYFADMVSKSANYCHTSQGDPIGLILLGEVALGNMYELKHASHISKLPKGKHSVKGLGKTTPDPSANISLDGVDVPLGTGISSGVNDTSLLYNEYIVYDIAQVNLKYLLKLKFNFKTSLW
UniProt Q9H2J4: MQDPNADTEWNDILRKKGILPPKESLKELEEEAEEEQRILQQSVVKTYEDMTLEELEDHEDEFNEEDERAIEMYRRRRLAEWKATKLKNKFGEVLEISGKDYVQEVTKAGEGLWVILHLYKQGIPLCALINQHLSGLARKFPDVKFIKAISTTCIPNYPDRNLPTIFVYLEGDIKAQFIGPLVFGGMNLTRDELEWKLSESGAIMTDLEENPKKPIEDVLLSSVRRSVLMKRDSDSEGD
UniProt Q9H0N5: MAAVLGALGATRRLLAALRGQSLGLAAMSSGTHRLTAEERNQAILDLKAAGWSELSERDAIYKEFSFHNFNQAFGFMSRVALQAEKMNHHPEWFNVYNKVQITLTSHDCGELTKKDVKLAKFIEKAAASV
UniProt Q9BPZ3: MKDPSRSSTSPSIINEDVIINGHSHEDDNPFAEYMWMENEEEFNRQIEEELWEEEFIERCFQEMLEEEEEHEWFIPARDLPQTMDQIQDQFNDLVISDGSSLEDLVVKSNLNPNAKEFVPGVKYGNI
UniProt Q9BZ23: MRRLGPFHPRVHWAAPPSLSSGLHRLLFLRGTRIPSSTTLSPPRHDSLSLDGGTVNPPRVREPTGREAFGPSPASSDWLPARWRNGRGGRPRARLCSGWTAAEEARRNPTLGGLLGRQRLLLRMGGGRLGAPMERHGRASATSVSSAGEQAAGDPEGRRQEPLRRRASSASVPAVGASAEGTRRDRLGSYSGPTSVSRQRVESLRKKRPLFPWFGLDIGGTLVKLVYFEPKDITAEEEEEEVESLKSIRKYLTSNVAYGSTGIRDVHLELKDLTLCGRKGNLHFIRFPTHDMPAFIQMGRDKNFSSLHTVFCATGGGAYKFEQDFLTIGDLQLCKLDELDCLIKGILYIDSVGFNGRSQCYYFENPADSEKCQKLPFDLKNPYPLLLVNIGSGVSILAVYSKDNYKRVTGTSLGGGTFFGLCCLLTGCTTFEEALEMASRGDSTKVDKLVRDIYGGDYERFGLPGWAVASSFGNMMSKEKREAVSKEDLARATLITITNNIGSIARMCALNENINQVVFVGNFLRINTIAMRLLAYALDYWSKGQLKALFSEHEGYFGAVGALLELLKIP
UniProt P13667: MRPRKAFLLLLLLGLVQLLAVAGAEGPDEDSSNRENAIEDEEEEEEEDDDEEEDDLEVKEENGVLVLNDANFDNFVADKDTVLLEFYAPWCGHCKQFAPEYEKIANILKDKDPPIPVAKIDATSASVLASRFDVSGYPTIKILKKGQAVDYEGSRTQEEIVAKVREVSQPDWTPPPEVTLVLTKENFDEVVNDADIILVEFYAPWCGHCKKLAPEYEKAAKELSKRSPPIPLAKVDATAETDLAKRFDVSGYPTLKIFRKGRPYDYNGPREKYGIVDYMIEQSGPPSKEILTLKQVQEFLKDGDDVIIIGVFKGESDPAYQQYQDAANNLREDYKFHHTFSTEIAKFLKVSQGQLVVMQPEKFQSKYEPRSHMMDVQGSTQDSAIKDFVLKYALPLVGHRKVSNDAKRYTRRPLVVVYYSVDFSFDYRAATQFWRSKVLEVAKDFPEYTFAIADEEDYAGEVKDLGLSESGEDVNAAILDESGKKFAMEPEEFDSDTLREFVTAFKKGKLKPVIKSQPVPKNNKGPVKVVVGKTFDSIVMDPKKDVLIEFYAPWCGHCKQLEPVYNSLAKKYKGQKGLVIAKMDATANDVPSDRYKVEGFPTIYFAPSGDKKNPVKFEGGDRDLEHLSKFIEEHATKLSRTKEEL
UniProt Q96HC4: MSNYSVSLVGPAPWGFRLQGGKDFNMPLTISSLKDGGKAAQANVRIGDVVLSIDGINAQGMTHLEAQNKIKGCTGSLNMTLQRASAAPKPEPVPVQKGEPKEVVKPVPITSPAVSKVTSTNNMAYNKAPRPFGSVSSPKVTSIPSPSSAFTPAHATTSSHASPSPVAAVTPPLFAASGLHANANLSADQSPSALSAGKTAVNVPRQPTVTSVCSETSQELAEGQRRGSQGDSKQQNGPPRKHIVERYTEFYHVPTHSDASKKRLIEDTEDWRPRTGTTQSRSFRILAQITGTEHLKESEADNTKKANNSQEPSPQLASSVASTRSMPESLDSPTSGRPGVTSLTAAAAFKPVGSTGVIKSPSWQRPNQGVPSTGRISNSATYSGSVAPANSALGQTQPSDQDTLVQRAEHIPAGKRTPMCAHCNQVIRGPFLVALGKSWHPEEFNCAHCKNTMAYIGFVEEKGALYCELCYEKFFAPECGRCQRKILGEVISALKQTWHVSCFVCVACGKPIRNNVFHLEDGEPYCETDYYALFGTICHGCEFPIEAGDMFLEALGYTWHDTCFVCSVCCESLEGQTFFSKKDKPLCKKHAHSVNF
UniProt P12004, whole entry, looked up: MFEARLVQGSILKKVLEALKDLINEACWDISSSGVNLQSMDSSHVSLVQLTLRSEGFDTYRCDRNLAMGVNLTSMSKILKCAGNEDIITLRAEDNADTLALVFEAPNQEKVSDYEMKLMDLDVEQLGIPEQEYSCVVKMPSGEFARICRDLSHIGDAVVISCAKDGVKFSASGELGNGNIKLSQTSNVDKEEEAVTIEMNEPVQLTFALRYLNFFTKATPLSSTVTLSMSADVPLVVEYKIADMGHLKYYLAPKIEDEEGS
UniProt Q99447: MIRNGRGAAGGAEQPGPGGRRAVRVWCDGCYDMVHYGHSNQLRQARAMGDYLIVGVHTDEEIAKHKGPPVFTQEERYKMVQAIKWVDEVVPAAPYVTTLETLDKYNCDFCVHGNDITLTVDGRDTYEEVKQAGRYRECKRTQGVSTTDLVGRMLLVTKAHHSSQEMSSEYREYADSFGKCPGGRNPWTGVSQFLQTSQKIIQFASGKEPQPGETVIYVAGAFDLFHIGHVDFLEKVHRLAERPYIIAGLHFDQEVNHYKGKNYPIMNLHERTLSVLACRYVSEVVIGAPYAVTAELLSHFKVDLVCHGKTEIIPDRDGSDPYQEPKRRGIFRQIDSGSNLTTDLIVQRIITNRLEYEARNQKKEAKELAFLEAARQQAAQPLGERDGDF

How the values were obtained:
Assay in all cases: log2 fold change, soluble protein after heating vs DMSO (PISA); higher = thermal stabilisation; K562 cells, 10 uM, 30 min; active = over 0.2 and 3.5 SD of the protein, either way, in both replicates (recomputed)
[1] = compound: NC(=O)Nc1cc(-c2cccc(F)c2)sc1C(=O)N[C@H]1CCCNC1
Outline: (§1)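 K562 cells (2×10^6 cells/mL) were treated with 10 μM compound for 30 min, and aliquots were heated for 3 min over 48°C-58°C. Pooled aliquots were extracted in PBS with 0.5% NP-40 at 4°C, and the supernatant after 21,000xg for 90 min was measured by TMTpro 16plex LC-MS/MS with channel sums equalised. Reported thermal stability, relative to control samples and from duplicates, is a log2 fold change.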

[2] = compound: NC(=O)c1cnc(N[C@@H]2CCCC[C@@H]2N)nc1Nc1cccc(-n2nccn2)c1
Outline: as §1

[3] = compound: NC1(c2ccc(-c3nc4ccn5c(=O)[nH]nc5c4cc3-c3ccccc3)cc2)CCC1
Outline: as §1

[4] = compound: NCC(=O)Nc1ccc(-n2nc(C(F)(F)F)cc2-c2ccc3c(ccc4ccccc43)c2)cc1
Outline: as §1

entinostat = compound: Nc1ccccc1NC(=O)c1ccc(CNC(=O)OCc2cccnc2)cc1 [entinostat]
Outline: as §1

vorinostat = compound: O=C(CCCCCCC(=O)Nc1ccccc1)NO [vorinostat]
Outline: as §1

citarinostat = compound: O=C(CCCCCCNC(=O)c1cnc(N(c2ccccc2)c2ccccc2Cl)nc1)NO [citarinostat]
Outline: as §1

silmitasertib = compound: O=C(O)c1ccc2c(c1)nc(Nc1cccc(Cl)c1)c1ccncc12 [silmitasertib]
Outline: as §1

[5] = compound: O=C1NC(=O)C(c2cnc3ccccn23)=C1c1cn2c3c(cc(F)cc13)CN(C(=O)N1CCCCC1)CC2
Outline: as §1

[6] = compound: c1cc(OCCN2CCCCC2)cc(-c2n[nH]c3ccc(-c4nnc[nH]4)cc23)c1
Outline: as §1

entospletinib = compound: c1cn2cc(-c3ccc4cn[nH]c4c3)nc(Nc3ccc(N4CCOCC4)cc3)c2n1 [entospletinib]
Outline: as §1

Row | Target | log2 fold change [1] | log2 fold change [2] | log2 fold change [3] | log2 fold change [4] | log2 fold change (entinostat) | log2 fold change (vorinostat) | log2 fold change (citarinostat) | log2 fold change (silmitasertib) | log2 fold change [5] | log2 fold change [6] | log2 fold change (entospletinib)
1 | PARG (UniProt Q86W56) | inactive: 0.141 | inactive: 0.001 | inactive: -0.113 | inactive: -0.013 | inactive: 0.12 | inactive: 0.157 | inactive: 0.067 | inactive: 0.048 | inactive: 0.065 | inactive: -0.091 | 
2 | PDE4DIP isoform 4 (UniProt Q5VU43) | inactive: 0.113 | inactive: -0.006 | inactive: 0.009 | inactive: 0.011 | inactive: 0.015 | inactive: -0.025 | inactive: 0.018 | inactive: -0.041 | inactive: -0.03 | inactive: -0.039 | 
3 | PCK2 (UniProt Q16822) | inactive: 0 | inactive: 0 | inactive: -0.029 | inactive: -0.013 | inactive: 0.005 | inactive: 0.004 | inactive: 0.013 | inactive: -0.025 | inactive: -0.148 | inactive: -0.032 | 
4 | PAFAH1B2 (UniProt P68402) | inactive: 0.015 | inactive: 0.049 | inactive: -0.037 | inactive: -0.025 | inactive: 0.045 | inactive: -0.088 | inactive: 0.021 | inactive: 0.106 | inactive: -0.048 | inactive: -0.097 | 
5 | PAFAH1B3 (UniProt Q15102) | inactive: -0.036 | inactive: -0.012 | inactive: -0.066 | inactive: -0.019 | inactive: 0.057 | inactive: 0.043 | inactive: -0.045 | inactive: -0.045 | inactive: -0.108 | inactive: -0.028 | 
6 | PARP1 (UniProt P09874) | inactive: -0.128 | inactive: -0.064 | inactive: -0.102 | inactive: -0.09 | inactive: 0.142 | inactive: 0.042 | inactive: 0.091 | inactive: 0.039 | inactive: -0.173 | inactive: 0 | 
7 | PCYT1B (UniProt Q9Y5K3) | inactive: -0.019 | inactive: -0.007 | inactive: -0.218 | inactive: -0.03 | inactive: 0.043 | inactive: -0.038 | inactive: 0.084 | inactive: 0.077 | inactive: -0.231 | inactive: -0.025 | 
8 | PAK1 isoform 2 (UniProt Q13153) | inactive: -0.067 | inactive: 0.051 | inactive: 0.012 | inactive: -0.083 | inactive: 0.021 | inactive: 0.096 | inactive: -0.033 | inactive: 0.043 | inactive: -0.068 | inactive: -0.032 | 
9 | PDLIM7 (UniProt Q9NR12) | inactive: 0.003 | inactive: 0.009 | inactive: 0.043 | inactive: -0.042 | inactive: 0.011 | inactive: 0.082 | inactive: 0.037 | inactive: -0.017 | inactive: 0.021 | inactive: -0.026 | 
10 | PDPK1 (UniProt O15530) | active: 0.238 | inactive: -0.111 | active: -0.314 | inactive: -0.061 | inactive: 0.034 | inactive: 0.108 | inactive: 0.038 | inactive: -0.04 | inactive: 0.004 | inactive: -0.019 | 
11 | PET100 (UniProt P0DJ07) | inactive: -0.009 | inactive: 0.008 | inactive: 0.032 | inactive: 0.005 | inactive: -0.122 | inactive: -0.054 | inactive: -0.03 | inactive: -0.079 | inactive: -0.027 | inactive: 0.016 | inactive: 0.014
12 | PDCL3 (UniProt Q9H2J4) | inactive: -0.009 | inactive: -0.034 | inactive: -0.049 | inactive: -0.014 | inactive: -0.023 | inactive: 0.002 | inactive: 0.037 | inactive: 0.014 | inactive: -0.061 | inactive: -0.004 | inactive: -0.023
13 | PDHA1 isoform 4 (UniProt P08559) | inactive: -0.005 | inactive: 0.03 | inactive: -0.068 | inactive: 0.125 | inactive: -0.001 | inactive: 0.059 | inactive: 0 | inactive: -0.041 | inactive: 0.096 | inactive: -0.062 | inactive: 0.104
14 | PER3 isoform 2 (UniProt P56645) | inactive: 0.042 | inactive: 0.007 | inactive: 0.052 | inactive: 0.037 | inactive: -0.037 | inactive: -0.013 | inactive: -0.066 | inactive: -0.025 | inactive: -0.09 | inactive: -0.059 | inactive: 0.059
15 | PCBD2 (UniProt Q9H0N5) | inactive: 0.008 | inactive: -0.012 | inactive: 0.011 | inactive: -0.005 | inactive: 0.023 | inactive: -0.009 | inactive: -0.006 | inactive: 0.041 | inactive: 0.005 | inactive: 0.022 | inactive: -0.004
16 | PAIP2 (UniProt Q9BPZ3) | inactive: 0.031 | inactive: 0.139 | inactive: -0.061 | inactive: 0.031 | inactive: -0.056 | inactive: 0.115 | inactive: -0.007 | inactive: 0.038 | inactive: 0.106 | inactive: -0.08 | inactive: 0.035
17 | PANK2 (UniProt Q9BZ23) | inactive: -0.051 | inactive: -0.03 | inactive: -0.047 | inactive: -0.006 | inactive: -0.07 | inactive: -0.024 | inactive: 0.145 | inactive: 0.046 | inactive: -0.003 | inactive: -0.06 | inactive: -0.05
18 | PABPC4 isoform 3 (UniProt Q13310) | inactive: -0.018 | inactive: -0.017 | inactive: 0.122 | inactive: -0.013 | inactive: 0.027 | inactive: 0.039 | inactive: -0.009 | inactive: 0.047 | inactive: 0.089 | inactive: -0.113 | inactive: 0.067
19 | PDIA4 (UniProt P13667) | inactive: 0.02 | inactive: 0.004 | inactive: -0.018 | inactive: 0.017 | inactive: 0.005 | inactive: -0.023 | inactive: 0.018 | inactive: -0.028 | inactive: 0.037 | inactive: -0.053 | inactive: -0.011
20 | PAPOLA (UniProt P51003) | inactive: -0.008 | inactive: -0.048 | inactive: -0.073 | inactive: 0 | inactive: 0.016 | inactive: 0.021 | inactive: 0.02 | inactive: -0.013 | inactive: -0.038 | inactive: -0.012 | inactive: -0.039
21 | PDF (UniProt Q9HBH1) | inactive: -0.083 | inactive: -0.027 | inactive: -0.015 | inactive: -0.028 | inactive: -0.051 | inactive: 0.021 | inactive: -0.009 | inactive: 0.018 | inactive: 0.034 | inactive: 0.045 | inactive: 0.104
22 | PDIA6 isoform 2 (UniProt Q15084) | inactive: -0.024 | inactive: 0.011 | inactive: -0.013 | inactive: 0.019 | inactive: 0.006 | inactive: -0.046 | inactive: -0.001 | inactive: 0.016 | inactive: -0.01 | inactive: 0.064 | inactive: -0.028
23 | PBXIP1 (UniProt Q96AQ6) | inactive: 0.023 | inactive: -0.027 | inactive: -0.029 | inactive: -0.034 | inactive: -0.03 | inactive: -0.035 | inactive: 0.042 | inactive: 0.019 | inactive: 0.014 | inactive: -0.046 | inactive: 0.001
24 | PDLIM5 (UniProt Q96HC4) | inactive: -0.008 | inactive: -0.063 | inactive: 0.015 | inactive: -0.028 | inactive: 0.007 | inactive: 0.011 | inactive: 0.043 | inactive: 0.015 | inactive: -0.003 | inactive: -0.048 | inactive: -0.032
25 | PCM1 isoform 5 (UniProt Q15154) | inactive: 0.056 | inactive: 0.011 | inactive: 0.139 | inactive: 0.051 | inactive: 0.031 | inactive: 0.034 | inactive: 0.061 | inactive: 0.196 | inactive: 0.092 | inactive: -0.198 | inactive: 0.026
26 | PC (UniProt P11498) | inactive: -0.025 | inactive: 0.027 | inactive: -0.084 | inactive: 0.004 | inactive: -0.003 | inactive: -0.044 | inactive: 0.053 | inactive: -0.122 | inactive: -0.099 | inactive: 0.112 | 
27 | PCNA (UniProt P12004) | inactive: 0.008 | inactive: -0.002 | inactive: -0.034 | inactive: -0.017 | inactive: 0.005 | inactive: -0.018 | inactive: 0.008 | inactive: 0 | inactive: -0.013 | inactive: -0.04 | inactive: -0.034
28 | PCYT2 isoform 3 (UniProt Q99447) | inactive: 0.018 | inactive: 0 | inactive: -0.079 | inactive: 0.006 | inactive: -0.02 | inactive: -0.009 | inactive: 0.046 | inactive: -0.02 | inactive: -0.042 | inactive: 0.006 | inactive: -0.039

Single entries from above:
Under log2 fold change [2], PCK2 (UniProt Q16822) has the entry inactive: 0
Under log2 fold change [6], PCNA (UniProt P12004) has the entry inactive: -0.04

From no. 8 up to 9, copied from above:
Row | Target | log2 fold change [1] | log2 fold change [2] | log2 fold change [3] | log2 fold change [4] | log2 fold change (entinostat) | log2 fold change (vorinostat) | log2 fold change (citarinostat) | log2 fold change (silmitasertib) | log2 fold change [5] | log2 fold change [6] | log2 fold change (entospletinib)
8 | PAK1 isoform 2 (UniProt Q13153) | inactive: -0.067 | inactive: 0.051 | inactive: 0.012 | inactive: -0.083 | inactive: 0.021 | inactive: 0.096 | inactive: -0.033 | inactive: 0.043 | inactive: -0.068 | inactive: -0.032 | 
9 | PDLIM7 (UniProt Q9NR12) | inactive: 0.003 | inactive: 0.009 | inactive: 0.043 | inactive: -0.042 | inactive: 0.011 | inactive: 0.082 | inactive: 0.037 | inactive: -0.017 | inactive: 0.021 | inactive: -0.026 | 
